In all, about 400,000 compounds went through this assay and about 13,000 (3.2%) were called active. The shares of active, inactive and inconclusive entries below differ from those in the screen. The call rests on the fitted dose curve; in most records, active means well fitted cell-killing curve with a large enough effect; inconclusive means small, poorly fitted or top-dose-only effect, or effect the other way; inactive means flat fitted curve, though single readings scatter. A potency beside an inconclusive call is a rough fit, not a confirmed value.
experiment: qHTS assay for MDR1-selective chemotherapeutics: Primary screen using the drug-selected MDR subline cells KB-V1; conditions: KB-V1 MDR cells viability, CellTiter-Glo, 72 h; activity change, negative = cytotoxicity: at 46.1 µM (top of the series); further: nearly all actives have a fitted effect of over 60% in size
Method in brief: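 Cytotoxicity via CellTiter-Glo luminescence after 72 h compound exposure at 37 degrees C. Cells: drug-selected KB-V1 line, DMEM phenol-red free plus 10% FBS. Compounds tested at multiple concentrations; normalized data fitted to concentration-effect curves.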
On the % scale 0 is the no-effect control and ±100 the full control effect; potency means the concentration at half of the fitted maximal effect.

SMILES | Potency | activity change, negative = cytotoxicity
Cc1cccc(C)c1NC(=O)NCCc1c[nH]c2ccccc12 | inconclusive: 25.9 µM [rising, partial curve, poor fit] | 
Fc1cccc(NC(=S)Nc2ccc(Br)cc2)c1 | inactive | 
COc1ccc(C(=O)NNC(=O)CSc2nnc(-c3ccc(O)cc3)n2C)cc1 | inconclusive: 0.13 µM [rising, full curve] | 
CCNc1ccc(P(=O)(c2ccccc2)c2ccccc2)cc1 | inconclusive: 8.2 µM [cytotoxic, partial curve] | 
C[C@H](CO)N1C[C@H](C)[C@H](CN(C)C(=O)NC2CCCCC2)Oc2ncc(Br)cc2C1=O | inactive | 
COC(=O)c1cn(NC(=O)/C=C/c2cc(OC)ccc2OC)c(=O)c2ccccc12 | active: 8.2 µM | 
CNCCCN1c2ccccc2CCc2ccccc21 | inconclusive: 16.4 µM [cytotoxic, single point] | 
O=C(CNc1cc(S(=O)(=O)N2CCCC2)ccc1OCC(F)(F)F)Nc1ccc(SC(F)F)cc1 | inactive | 
COc1cc(OC)cc(C(=O)NNC(=O)C(CCC(N)=O)NS(=O)(=O)c2ccc(Cl)cc2)c1 (stereo not given) | inactive | 
COc1cccc(N2CCN(c3ncnc4c3nc3n4CCCCC3)CC2)c1 | inconclusive: 18.4 µM [cytotoxic, single point] | 
COC(=O)c1c(C)oc2ccc(N(C(C)=O)S(=O)(=O)c3ccccc3)cc12 | active: 2.31 µM | 
Cc1c(O)ccc(/C(Cc2ccc3ccccc3n2)=N\N)c1O | inconclusive: 20.6 µM [cytotoxic, single point] | 
COc1cc(/C=N/Nc2nc(Nc3ccccc3)nc(-n3nc(C)cc3C)n2)cc(OC)c1OC | active: 7.31 µM | 
Cn1c(=O)n(C)c2cc(C(=O)Nc3ccc4c(c3)OCO4)ccc21 | inconclusive: 18.4 µM [cytotoxic, partial curve] | 
Cc1ccc(CN2C(=O)N/C(=C/c3cc(C)n(-c4ccccn4)c3C)C2=O)cc1 | inconclusive: 9.2 µM [cytotoxic, partial curve] | 
O=S(=O)(c1ccccc1)c1nnn2c1nc(NCc1ccc(F)cc1)c1sccc12 | inconclusive: 18.4 µM [rising, single point] | 
CCOc1cc(N2CCOCC2)c(OCC)cc1NC(=O)COc1cccc(CC)c1 | inconclusive: 20.6 µM [cytotoxic, single point] | 
COc1ccc(-c2csc(NC(=O)c3ccc(C(C)(C)C)cc3)c2C(=O)O)cc1 | inconclusive: 20.6 µM [cytotoxic, partial curve, poor fit] | 
CCN(CC(=O)Nc1ccc2c(c1)OCCO2)C(=O)/C=C/c1ccc([N+](=O)[O-])cc1 | active: 20.6 µM | 
CSC1=NC2(CCN(C(=O)NC3CCCCC3)CC2)N=C1c1ccc(C)cc1 | inactive | 
CCOC(=O)CN1C(=O)CN(c2ccc(C)cc2)C1=O | inactive | 
O=c1cc(-c2ccccc2Cl)oc2c(NS(=O)(=O)c3cc(Cl)cc(Cl)c3O)ccc(O)c12 | active: 18.4 µM | 
O=C(O)c1ccccc1/C=N/NC(=O)C1CCCCC1 | inconclusive: 23.1 µM [rising, single point] | 
O=C(C1CC1)N1N=C(c2cccc(Br)c2)CC1(O)C(F)(F)F (stereo not given) | inconclusive: 20.6 µM [cytotoxic, single point] | 
Cc1ccc(CSCC(=O)Nc2cc(S(=O)(=O)N3CCOCC3)ccc2OCC(F)(F)F)cc1 | active: 14.6 µM | 

Three records drawn at random from those above:
SMILES | Potency | activity change, negative = cytotoxicity
C[C@H](CO)N1C[C@H](C)[C@H](CN(C)C(=O)NC2CCCCC2)Oc2ncc(Br)cc2C1=O | inactive | 
COc1ccc(C(=O)NNC(=O)CSc2nnc(-c3ccc(O)cc3)n2C)cc1 | inconclusive: 0.13 µM [rising, full curve] | 
COC(=O)c1cn(NC(=O)/C=C/c2cc(OC)ccc2OC)c(=O)c2ccccc12 | active: 8.2 µM | 

The list goes on.

SMILES | Potency | activity change, negative = cytotoxicity
CCN1CCCC1CN(Cc1cc2ccc(C)cc2[nH]c1=O)C(=S)Nc1ccc(OC)cc1 (stereo not given) | inconclusive: 29.1 µM [cytotoxic, single point] | 
COCCCNCCOCCOc1ccccc1-c1ccccc1 | active: 23.1 µM | 
O=C(C1=C[C@H](c2ccc(Br)cc2)C[C@H](OCc2ccc(CO)cc2)O1)N1CCN(Cc2ccc3c(c2)OCO3)CC1 | inconclusive: 20.6 µM [cytotoxic, single point] | 
Cc1noc(-c2ccc(-c3noc(-c4cccc(F)c4)n3)cc2)n1 | inactive | 
O=C(c1cccs1)N1CCN(c2cccc(Cl)c2)CC1 | inactive | 
CC(C)Oc1cc(F)ccc1-c1cc(C(=O)Nc2cccc(Cl)c2)[nH]n1 | inactive | 
NC(=O)C1CCN(C(=O)c2cccc(NC(=O)c3nsc4ccccc34)c2)CC1 | inactive | 
O=c1oc(/C=C/c2ccco2)nc2sc3c(c12)CCC3 | inconclusive: 18.4 µM [rising, single point] | 
CSC1=NS(=O)(=O)c2c(C)nn(C)c2S1 |  | inconclusive: -24.4%
O=C(O)c1cc(-n2cccc2)ccc1N1CCOCC1 | inconclusive: 1.46 µM [rising, partial curve, poor fit] | 
COc1ccc(/C=C/C(=O)OCC(=O)NCCc2ccccc2)c(OC)c1 | inconclusive: 4.11 µM [rising, full curve] | 
CCN(c1ccccc1)S(=O)(=O)c1ccc(C(=O)NCCc2ccc(S(N)(=O)=O)cc2)cc1 | inactive | 
O=S(=O)(c1ccc(Br)cc1Cl)N1CCCN(c2ccc(C(F)(F)F)cn2)CC1 | inconclusive: 20.6 µM [cytotoxic, partial curve, poor fit] | 
CCOc1ccc(CNC(=O)CSc2cc(=O)n(CC)c3ccccc23)cc1 | inactive | 
CCOc1ccc(NC(=O)Nc2cccn(Cc3ccccc3)c2=O)cc1 | active: 5.8 µM | 
CCNc1cc(N2CCOCC2)nc(SC)n1 | inconclusive: 29.1 µM [rising, single point] | 
COc1ccc(CCNC(=O)CSc2nnc(-c3cccc(F)c3)o2)cc1OC | inconclusive: 32.6 µM [cytotoxic, partial curve, poor fit] | 
COC(=O)c1ccc(NC(=O)c2cccc(C)c2[N+](=O)[O-])cc1 | inactive | 
Cc1cccc(N2CCN(Cc3ccc(Br)o3)CC2)c1C | inactive | 
CCOc1ccc(NC(=O)CN(C)C(=O)c2c(C)nn(Cc3ccccc3Cl)c2C)cc1OCC | inactive | 
CCNC(=O)C1CCCN(Cc2cc(C(F)(F)F)ccc2Cl)CC1 (stereo not given) | inactive | 
COc1ccc(/C=N/NC(=O)c2ccc(Cn3cc([N+](=O)[O-])cn3)o2)cc1O | inconclusive: 29.1 µM [rising, single point] | 
COc1ccc(S(=O)(=O)N(C)C)cc1NC(=O)CSc1nncs1 | inconclusive: 18.4 µM [rising, single point] | 
Fc1ccc(CNc2ncnc3onc(-c4ccc(F)cc4)c23)cc1 | inconclusive: 29.1 µM [cytotoxic, single point] | 
O=[N+]([O-])c1cccc(-c2csc(N/N=C/c3cccc(O)c3)n2)c1 | inconclusive: 29.1 µM [cytotoxic, single point] | 

SMILES | Potency | activity change, negative = cytotoxicity
O=C1CC(c2ccc(F)cc2)Cc2nc(NCC3CCCO3)ncc21 (stereo not given) | active: 20.6 µM | 
COc1ccc2cc(C3(C)NC(=O)N(CC(=O)NCCC4=CCCCC4)C3=O)ccc2c1 (stereo not given) | active: 16.4 µM | 
CCOC(=O)c1cc(C(C)C)sc1NC(=O)COC(=O)CCS(=O)(=O)c1ccccc1 | active: 18.4 µM | 
Cc1cccc(OCC(=O)NCCNC(=O)c2ccncc2)c1 | inactive | 
Cc1nc(NS(=O)(=O)c2ccccc2)sc1C(C)(C)C | active: 18.4 µM | 
Cc1ccc2nc(Cl)c3nnnn3c2c1 | inconclusive: 25.9 µM [cytotoxic, partial curve, poor fit] | 
CCN(CC)S(=O)(=O)c1cccc(C(=O)Nc2ccc(C#N)cc2)c1 | inactive | 
COc1ccc(/C=N/Nc2ncc(C(F)(F)F)cc2Cl)cc1OC | inconclusive: 0.517 µM [cytotoxic, full curve, poor fit] | 
O=C(NCN1CCN(c2ccccc2)CC1)c1cnccn1 | inconclusive: 16.4 µM [rising, partial curve] | 
O=C(Nc1nnc(-c2cccs2)o1)c1ccc(S(=O)(=O)N2CCOCC2)cc1 | inconclusive: 0.58 µM [cytotoxic, full curve, poor fit] | 
CCOc1ccccc1NC(=O)C(CC(C)C)NS(=O)(=O)c1ccc2c(c1)oc(=O)n2C (stereo not given) | inconclusive: 0.651 µM [rising, full curve] | 
COc1cc(CNC(=O)c2ccc3nc(CCc4ccccc4)oc3c2)cc(OC)c1OC | inactive | 
O=c1[nH]c(SCc2cccc(F)c2)nc2c1CCCC2 | active: 14.6 µM | 
COc1ccccc1OCC(O)Cn1c(=N)n(CCN2CCCCC2)c2ccccc21 (stereo not given) | inactive | 
CCN1CCN(C(=O)c2cnn(-c3cccc(Cl)c3)c2C2CCN(C(=O)OC(C)(C)C)CC2)CC1 | inactive | 
CCCCn1nnnc1SCC(=O)Nc1sc2c(c1C#N)CCCC2 | inconclusive: 23.1 µM [cytotoxic, single point] | 
O=C(NC1CCC(=O)N(CCOc2ccccc2)CC1)OCc1ccccc1 (stereo not given) | inconclusive: 16.4 µM [cytotoxic, partial curve] | 
O=C(Oc1ccc(-c2nnco2)cc1)C1CCN(C(=O)c2ccc(F)cc2)CC1 | inactive | 
C=CCNC(=S)Nc1ccc2nc(C)c(C)nc2c1 | inactive | 
CCCN(Cc1cc2ccc(C)cc2[nH]c1=O)C(=O)c1ccccn1 | inconclusive: 23.1 µM [cytotoxic, partial curve] | 
COc1ccccc1C(CNc1nc(C(F)(F)F)nc2ccccc12)N(C)C (stereo not given) | inconclusive: 13 µM [cytotoxic, single point] | 
COC(=O)N/N=C/c1cccc([N+](=O)[O-])c1 | inactive | 
CC(=O)c1cccc(NC(=O)c2cccc3c(-c4cnn(C)c4)coc23)c1 | inconclusive: 20.6 µM [cytotoxic, single point] | 
COc1ccccc1C(CNC(=O)c1cccc(S(=O)(=O)NCc2ccccc2)c1)N(C)C (stereo not given) | inactive | 
CCC(c1nnnn1-c1ccc2c(c1)OCCO2)N1CCN(c2ccc(OC)cc2)CC1 (stereo not given) | active: 16.4 µM | 

— PubChem BioAssay AID1347076 (National Center for Advancing Translational Sciences (NCATS), 2019)
